# No constants are given. Whether binding was seen depends on the method and setting. Some entries that bind do so weakly or less than the wild type.
# Biological target: IRF3 of G. gallus, endogenous in DF-1 cells (G. gallus (endogenous in DF-1)) (UniProt Q90643)
# Test: native gel or EMSA
binder,measurement,value
"IRF3 of G. gallus, endogenous in DF-1 cells (protein, UniProt Q90643 1-491) MAALDSEGDAQKLRFGPWLLNAVSSGLYRGLCWIDPDRRIFRIPWKHNARKDVTSSDVEIFKAWAKASGRYEGNAEDPAKWKTNFRCALRSTHMFMLLEDRSKCNDDPHKVYAVASGVPNDRGSGGPVAGALQQQPQLLLNHHDLALENTPTDSTEGVAAAALTQVDLDLLQSVLQHCNISALGSQPTLWAHTGDALPEDALLLPGQDGCLPGPQFQDWRQLEEPLLLGNQPLTGGGCGQDGAGALPVSEECAIPAPSPAEELLFQSANPAPPPPAGDIGGLPPLLDITIYYRGKMVYQEQVDDSRCVLAYQPLDPAVAEQRLVLFPSPASLPDPRQRRYTEDLLEVAGLRLEQRAGQLLATRLKKCKVFWALSQQLEGGEPPLNLLHRDQETTIFDFRVFCTELRDFRDSRRERSPDFTIFLCFGQCFSSTKPKESKLILVKLVPQFCEYWYEQVQRGGASSLNSGNVSLQLSDSFNLFELIEQYHMQTD",binding,binds

# — publication PMC11441976
